Measured values taken from article PMC6521308.
Results are given in words; binding and its absence hold for the method and conditions named. In cells and extracts the contact can be indirect. Some entries that bind do so weakly or less than the wild type.

Chains of the proteins cited; added tags and fusions are not shown. Residues count along the entry.
UniProt P35869, residues 11-848: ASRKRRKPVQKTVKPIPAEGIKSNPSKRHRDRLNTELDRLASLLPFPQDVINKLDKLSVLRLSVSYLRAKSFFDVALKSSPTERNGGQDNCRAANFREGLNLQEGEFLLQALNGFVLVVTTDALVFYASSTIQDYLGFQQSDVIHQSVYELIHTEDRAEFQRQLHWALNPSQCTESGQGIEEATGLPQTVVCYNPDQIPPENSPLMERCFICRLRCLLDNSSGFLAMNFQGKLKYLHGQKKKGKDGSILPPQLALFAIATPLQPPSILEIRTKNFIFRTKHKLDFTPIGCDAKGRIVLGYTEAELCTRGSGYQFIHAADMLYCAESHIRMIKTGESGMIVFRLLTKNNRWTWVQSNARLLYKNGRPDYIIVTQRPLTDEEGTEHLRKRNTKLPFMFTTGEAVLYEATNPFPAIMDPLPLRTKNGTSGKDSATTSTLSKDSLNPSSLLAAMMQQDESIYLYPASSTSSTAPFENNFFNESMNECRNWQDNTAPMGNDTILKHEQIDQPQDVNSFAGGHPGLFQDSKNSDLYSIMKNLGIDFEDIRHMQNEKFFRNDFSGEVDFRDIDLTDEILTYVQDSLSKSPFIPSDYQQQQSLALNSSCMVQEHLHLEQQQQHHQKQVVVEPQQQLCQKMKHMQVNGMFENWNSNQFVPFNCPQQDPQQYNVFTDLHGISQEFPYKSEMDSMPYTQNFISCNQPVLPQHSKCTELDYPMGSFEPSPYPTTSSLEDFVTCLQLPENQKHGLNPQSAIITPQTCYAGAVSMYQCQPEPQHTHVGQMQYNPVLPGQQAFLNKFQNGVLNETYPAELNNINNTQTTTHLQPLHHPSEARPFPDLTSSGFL
UniProt P10275: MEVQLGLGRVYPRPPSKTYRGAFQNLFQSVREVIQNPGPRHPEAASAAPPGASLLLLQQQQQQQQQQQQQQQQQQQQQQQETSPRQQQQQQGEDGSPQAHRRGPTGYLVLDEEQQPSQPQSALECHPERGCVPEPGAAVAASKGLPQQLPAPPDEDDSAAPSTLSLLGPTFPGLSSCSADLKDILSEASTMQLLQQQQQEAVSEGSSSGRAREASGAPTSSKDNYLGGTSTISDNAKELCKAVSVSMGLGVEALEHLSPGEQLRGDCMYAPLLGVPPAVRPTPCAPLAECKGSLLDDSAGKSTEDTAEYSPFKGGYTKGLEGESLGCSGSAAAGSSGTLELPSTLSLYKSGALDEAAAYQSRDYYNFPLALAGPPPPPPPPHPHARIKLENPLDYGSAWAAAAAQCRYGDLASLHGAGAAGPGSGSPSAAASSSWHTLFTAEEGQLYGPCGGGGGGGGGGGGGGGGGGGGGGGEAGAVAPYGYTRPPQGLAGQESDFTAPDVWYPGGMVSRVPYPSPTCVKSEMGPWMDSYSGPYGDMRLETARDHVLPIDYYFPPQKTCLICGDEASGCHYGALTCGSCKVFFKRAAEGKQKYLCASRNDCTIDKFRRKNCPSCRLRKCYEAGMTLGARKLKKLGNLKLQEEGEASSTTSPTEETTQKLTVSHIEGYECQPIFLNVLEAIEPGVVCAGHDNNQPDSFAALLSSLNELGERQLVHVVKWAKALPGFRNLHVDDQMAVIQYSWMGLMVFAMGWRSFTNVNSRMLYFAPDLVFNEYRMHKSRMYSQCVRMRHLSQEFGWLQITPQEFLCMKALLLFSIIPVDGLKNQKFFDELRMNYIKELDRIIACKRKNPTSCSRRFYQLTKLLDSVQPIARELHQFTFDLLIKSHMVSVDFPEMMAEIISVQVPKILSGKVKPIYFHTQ

Target: Aryl hydrocarbon receptor (human (endogenous in HeyA8, OVCAR3, SKOV3ip1)) (UniProt P35869)
Test: co-IP; lysates (500 ug per IP) of AR-overexpressed HeyA8, OVCAR3 and SKOV3ip1 cells in non-denaturing lysis buffer (20 mM Tris HCl pH 8, 137 mM NaCl, 1% NP-40, 2 mM EDTA); AhR immunoprecipitated with anti-AhR antibody at 4 °C overnight, protein A/G agarose; western blot with anti-AR and anti-AhR; rabbit IgG as control

binding: binds
Substance: Androgen receptor (from UniProt P10275 1-920)
